# Source: the supplement of paper PMC9135407
# Where “and” joins values, the source holds several entries; their conditions need not be identical. Equal values may be shown once. Where a name gives a salt, the structure may show the parent alone. ± gives the standard deviation of the averaged measurements. The list shows a part of the results. Plates or batches differ in their baseline, so values are only roughly comparable.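 Primary human stellate myofibroblasts activated in culture; inactivation shown by regained lipid droplets. Readout: fraction of Hoechst-counted cells exceeding a per-plate Bodipy threshold, duplicate wells, each plate with DMSO negative and nortriptyline positive controls. Hits: control-normalized score beyond the plate's top-tenth-percentile nortriptyline wells, or among its three best wells. Final well concentrations unstated.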
# Tested on: primary human hepatic stellate cells (donor 1)
# Experiment: percent Bodipy-positive cells; higher = more lipid droplet accumulation
# Conditions: 48 h
# Experimental: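 Primary lipid accumulation screen in primary human hepatic stellate cell myofibroblasts (donor 1, passage 8) in 384-well plates. 100 nL of library compound was pin-transferred into 30 µL medium in duplicate, and cells were treated for 48 h. The 'Scaled' score combines distance from plate baseline, toxicity and reproducibility penalties, and is normalised to nortriptyline (positive) and DMSO (negative) controls on each plate. A hit is defined as scaled >0.85 or among the top 3 wells per plate.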
# [1] = library stock concentration: 10 mM
# [2] = library stock concentration: 3.33 mM
# [3] = library stock concentration: 8.6 mM
# [4] = library stock concentration: 1 mM
smiles,measurement,setting,value
C=C(C)[C@H]1O[C@H]2CC[C@@]3(C)[C@@](O)(CC[C@H]4[C@@H]5OC(C)(C)[C@H]6C[C@@H]7C(=C)Cc8c(Cl)cc9[nH]c(c5c9c8[C@@]76O)[C@@]43C)[C@@]23O[C@H]3[C@H]1O [Penitrem A],percent Bodipy-positive cells,library stock concentration: 7.9 mM,27.9 ± 19%
"C[N+]1(C)CCN(c2ccccc2)CC1 [1,1-Dimethyl-4-phenyl-piperazinium iodide]",percent Bodipy-positive cells,[1],40.45 ± 0.38%
C[N+]1(C)CCN(c2ccccc2)CC1,percent Bodipy-positive cells,[1],11.4 ± 1.4%
C[C@H](Cc1ccc2c(c1)OC(C(=O)O)(C(=O)O)O2)NC[C@H](O)c1cccc(Cl)c1,percent Bodipy-positive cells,[1],39.6 ± 10%
"CCC1(c2ccc(N)cc2)CCC(=O)NC1=O (stereo unspecified) [Glutethimide, para-amino]",percent Bodipy-positive cells,,21.3 ± 5%
CCC1(c2ccc(N)cc2)CCC(=O)NC1=O (stereo unspecified) [Aminoglutethimide],percent Bodipy-positive cells,[2],8.02 ± 1.7%
same,percent Bodipy-positive cells,[3],2.95 ± 0.4%
same,percent Bodipy-positive cells,[1],10.9% and 17.6% and 26.3%
CCC1(c2ccc(N)cc2)CCC(=O)NC1=O (stereo unspecified) [(?)-p-Aminoglutethimide],percent Bodipy-positive cells,[1],50.4 ± 2.8%
O=c1[nH]c2ccccc2n1C1CCN(CCCC(c2ccc(F)cc2)c2ccc(F)cc2)CC1 [Pimozide],percent Bodipy-positive cells,[1],74.9 ± 5.3%
CCCN1CCC[C@H](c2cccc(O)c2)C1 [R(+)-3PPP hydrochloride],percent Bodipy-positive cells,[1],18.6 ± 1.1%
NC(=O)COc1c(F)cc(SCCNS(=O)(=O)c2ccccc2)cc1F,percent Bodipy-positive cells,[1],33.8 ± 6.4%
CC[C@@]1([C@@H]2O[C@@H]([C@H]3O[C@@](O)(CO)[C@H](C)C[C@@H]3C)C[C@@H]2C)CC[C@H]([C@]2(C)CC[C@]3(C[C@H](O)[C@@H](C)[C@@H]([C@@H](C)[C@@H](OC)[C@H](C)C(=O)O)O3)O2)O1 [Monensin sodium salt],percent Bodipy-positive cells,,46.8 ± 9.2%
CCN(C)C(=O)Oc1cccc([C@H](C)N(C)C)c1 [Rivastigmine],percent Bodipy-positive cells,library stock concentration: 8 mM,9.34 ± 1.2%
CCN(C)C(=O)Oc1cccc([C@H](C)N(C)C)c1 [Rivastigmine Tartrate],percent Bodipy-positive cells,[2],8.01 ± 2.2%
same,percent Bodipy-positive cells,[1],22.2 ± 5.7%
O=C1NC(=O)c2c1c1c3ccccc3n3c1c1c2c2ccccc2n1C1CCC3O1,percent Bodipy-positive cells,[1],80.4 ± 1.2%
NCCc1ccc(O)cc1 [Tyramine],percent Bodipy-positive cells,[1],26.6 ± 7.5%
NCCc1ccc(O)cc1 [4-Hydroxyphenethylamine hydrochloride],percent Bodipy-positive cells,[1],15.3 ± 2.1%
"CN(C(=O)Cc1ccc(Cl)c(Cl)c1)C(CN1CCCC1)c1cccc(OCC(=O)O)c1 (stereo unspecified) [ICI 204,448 hydrochloride]",percent Bodipy-positive cells,[1],46.2 ± 5.1%
CN(C)C(=O)Oc1cc(OC(=O)N(C)C)cc(C(O)CNC(C)(C)C)c1 (stereo unspecified) [Bambuterol],percent Bodipy-positive cells,library stock concentration: 5.4 mM,13.3 ± 0.18%
CN(C)C(=O)Oc1cc(OC(=O)N(C)C)cc(C(O)CNC(C)(C)C)c1 (stereo unspecified) [Bambuterol hydrochloride],percent Bodipy-positive cells,,33.1 ± 3.1%
CN(C)C(=O)Oc1cc(OC(=O)N(C)C)cc(C(O)CNC(C)(C)C)c1 (stereo unspecified) [Bambuterol HCl],percent Bodipy-positive cells,[2],6.16 ± 1.5%
same,percent Bodipy-positive cells,[1],26.6 ± 2.5%
CCCCC/C=C\C/C=C\C/C=C\C/C=C\CCCCOC(CO)CO [2-Arachidonyl Glycerol ether],percent Bodipy-positive cells,[4],11.8 ± 3.3%
C[N+]1(C)[C@@H]2C[C@@H](OC(=O)[C@H](CO)c3ccccc3)C[C@H]1[C@@H]1O[C@@H]12 [Methscopolamine],percent Bodipy-positive cells,[2],8.15 ± 2.1%
same,percent Bodipy-positive cells,[1],17.2 ± 0.44%
C[N+]1(C)[C@@H]2C[C@@H](OC(=O)[C@H](CO)c3ccccc3)C[C@H]1[C@@H]1O[C@@H]12 [(-)-Scopolamine methyl bromide],percent Bodipy-positive cells,[1],12 ± 5.2%
C[N+]1(C)[C@@H]2C[C@@H](OC(=O)[C@H](CO)c3ccccc3)C[C@H]1[C@@H]1O[C@@H]12 [Methscopolamine bromide],percent Bodipy-positive cells,library stock concentration: 5 mM,4.39 ± 0.54%
same,percent Bodipy-positive cells,[1],11.2 ± 0.25%
C[C@]12CC[C@H](O)C[C@@H]1CC[C@@H]1[C@@H]2CC[C@]2(C)C(=O)CC[C@@H]12 [Epiandrosterone],percent Bodipy-positive cells,,39.2 ± 9.8%
same,percent Bodipy-positive cells,[2],12.4 ± 1.4%
same,percent Bodipy-positive cells,[1],49.1 ± 34%
Cn1cc(C(=O)C(=O)N[C@H]2CN3CCC2CC3)c2ccccc21,percent Bodipy-positive cells,[1],32.4 ± 4.1%
N[C@@]1(C(=O)O)CC[C@@H](C(=O)O)C1,percent Bodipy-positive cells,[1],9.47 ± 4.8%
CCn1cc(C(=O)O)c(=O)c2cc3c(cc21)OCO3 [Oxolinic acid],percent Bodipy-positive cells,,27.9 ± 1.5%
same,percent Bodipy-positive cells,library stock concentration: 7.7 mM,9.07 ± 1.7%
same,percent Bodipy-positive cells,[1],30.1% and 42%
CC1=NCCc2c1[nH]c1cc(O)ccc21.Cl.O.O [Harmalol hydrochloride dihydrate],percent Bodipy-positive cells,,88.6 ± 1.5%
Cc1nc(N)sc1CCN [Amthamine dihydrobromide],percent Bodipy-positive cells,[1],7.11 ± 2.6%
[N-]=[N+]=CC(=O)OC[C@H](N)C(=O)O [Azaserine],percent Bodipy-positive cells,[1],40.6 ± 4.6%
same,percent Bodipy-positive cells,library stock concentration: 11.6 mM,18.5 ± 5.1%
CCCCC/C=C\C[C@@H](/C=C/C=C\C/C=C\CCCC(=O)O)OO,percent Bodipy-positive cells,library stock concentration: 100 uM,9.51 ± 8.6%
CC(=O)O[C@H]1C[C@@H]2CC[C@@H]3[C@H](CCC4(C)[C@H]3C[C@H]([N+]3(C)CCCCC3)[C@@H]4OC(C)=O)C2(C)C[C@@H]1[N+]1(C)CCCCC1 (stereo partly specified) [Pancuronium Br],percent Bodipy-positive cells,library stock concentration: 3.5 mM,10.3 ± 3.7%
CCCCCc1cc(O)c2c(c1)OC(C)(C)C1CCC(C(=O)O)=CC21 (stereo unspecified) [Tetrahydrocannabinol-7-oic acid],percent Bodipy-positive cells,[4],11 ± 8.7%
"CCCCCCCCCC(=O)OC[C@H](COP(=O)([O-])OCC[N+](C)(C)C)OC(=O)CCCCCCCCC [1,2-Didecanoyl PC]",percent Bodipy-positive cells,[4],12.7 ± 6%
N=C1NC(=O)N2CC12 (stereo unspecified),percent Bodipy-positive cells,[1],45.5 ± 17%
"NCC(O)c1ccc(O)cc1 (racemic) [(+,-)-Octopamine hydrochloride]",percent Bodipy-positive cells,,9.81 ± 1.5%
"NCC(O)c1ccc(O)cc1 (racemic) [(+,-)-Octopamine HCl]",percent Bodipy-positive cells,[2],10.5 ± 0.42%
same,percent Bodipy-positive cells,[1],22.6 ± 12%
CN=C(NS(=O)(=O)c1ccc(Cl)cc1)N1C[C@H](c2ccccc2)C(c2ccc(Cl)cc2)=N1,percent Bodipy-positive cells,[4],9.58 ± 2.1%
C[C@@H]1O[C@@H](O[C@H]2C[C@@H](O)[C@]3(CO)[C@H]4[C@H](O)C[C@]5(C)[C@@H](C6=CC(=O)OC6)CC[C@]5(O)[C@@H]4CC[C@]3(O)C2)[C@H](O)[C@H](O)[C@H]1O [Ouabain],percent Bodipy-positive cells,[3],80.2 ± 2.3%
COc1ccc2c3c([nH]c2c1)C(C)=NCC3 [Harmaline],percent Bodipy-positive cells,[1],55.5 ± 1.3%
COc1ccc2c3c([nH]c2c1)C(C)=NCC3 [Harmaline hydrochloride dihydrate],percent Bodipy-positive cells,,51 ± 6%
CN1[C@@H]2CC[C@H]1C[C@@H](OC1c3ccccc3CCc3ccccc31)C2 [Deptropine citrate],percent Bodipy-positive cells,,34.9 ± 0.93%
"C[C@@H](N)Cc1cnc[nH]1 [Histamine, R(-)-alpha-methyl-, dihydrochloride]",percent Bodipy-positive cells,[1],33.443 ± 0.0028%

# Rewritten with tabs: entries from further up.
smiles	measurement	setting	value
CC(=O)O[C@H]1C[C@@H]2CC[C@@H]3[C@H](CCC4(C)[C@H]3C[C@H]([N+]3(C)CCCCC3)[C@@H]4OC(C)=O)C2(C)C[C@@H]1[N+]1(C)CCCCC1 (stereo partly specified) [Pancuronium Br]	percent Bodipy-positive cells	library stock concentration: 3.5 mM	10.3 ± 3.7%
CCCCCc1cc(O)c2c(c1)OC(C)(C)C1CCC(C(=O)O)=CC21 (stereo unspecified) [Tetrahydrocannabinol-7-oic acid]	percent Bodipy-positive cells	[4]	11 ± 8.7%
CCCCCCCCCC(=O)OC[C@H](COP(=O)([O-])OCC[N+](C)(C)C)OC(=O)CCCCCCCCC [1,2-Didecanoyl PC]	percent Bodipy-positive cells	[4]	12.7 ± 6%
N=C1NC(=O)N2CC12 (stereo unspecified)	percent Bodipy-positive cells	[1]	45.5 ± 17%
